From article PMC5706798
Results are given in words; binding and its absence hold for the method and conditions named. In cells and extracts the contact can be indirect. Some binding calls cover weakened binding; strength is not graded here.

Molecular target: PRPF8 (human (endogenous in U2OS)) (UniProt Q6P2Q9)
Experiment: co-IP; endogenous proteins of U2OS cells treated with 10 Gy IR and 2 h at 37°C; lysed 3 h at 4°C in ELB buffer (50 mM HEPES, 250 mM NaCl, 5 mM EDTA, 0.1% IGEPAL) with phosSTOP and benzonase, sonicated; IP with antibodies against PRPF8, BRCA1 or control IgG, protein-G Dynabeads; immunoblot

- binding: binds
B1: XAB2 (protein, UniProt Q9HCS7 1-855)
chain: MVVMARLSRPERPDLVFEEEDLPYEEEIMRNQFSVKCWLRYIEFKQGAPKPRLNQLYERALKLLPCSYKLWYRYLKARRAQVKHRCVTDPAYEDVNNCHERAFVFMHKMPRLWLDYCQFLMDQGRVTHTRRTFDRALRALPITQHSRIWPLYLRFLRSHPLPETAVRGYRRFLKLSPESAEEYIEYLKSSDRLDEAAQRLATVVNDERFVSKAGKSNYQLWHELCDLISQNPDKVQSLNVDAIIRGGLTRFTDQLGKLWCSLADYYIRSGHFEKARDVYEEAIRTVMTVRDFTQVFDSYAQFEESMIAAKMETASELGREEEDDVDLELRLARFEQLISRRPLLLNSVLLRQNPHHVHEWHKRVALHQGRPREIINTYTEAVQTVDPFKATGKPHTLWVAFAKFYEDNGQLDDARVILEKATKVNFKQVDDLASVWCQCGELELRHENYDEALRLLRKATALPARRAEYFDGSEPVQNRVYKSLKVWSMLADLEESLGTFQSTKAVYDRILDLRIATPQIVINYAMFLEEHKYFEESFKAYERGISLFKWPNVSDIWSTYLTKFIARYGGRKLERARDLFEQALDGCPPKYAKTLYLLYAQLEEEWGLARHAMAVYERATRAVEPAQQYDMFNIYIKRAAEIYGVTHTRGIYQKAIEVLSDEHAREMCLRFADMECKLGEIDRARAIYSFCSQICDPRTTGAFWQTWKDFEVRHGNEDTIKEMLRIRRSVQATYNTQVNFMASQMLKVSGSATGTVSDLAPGQSGMDDMKLLEQRAEQLAAEAERDQPLRAQSKILFVRSDASREELAELAQQVNPEEIQLGEDEDEDEMDLEPNEVRLEQQSVPAAVFGSLKED
